From patent publication US5359075A, “Quinophthalone compound” (Mitsui Toatsu Chemicals, Incorporated, priority 1991, dated 1994)
Some compounds share one wording; it may come from a single statement.

Assays:
[1] = Resin coloring suitability test: bleeding properties; settings: 0.02 pts. wt., vinyl chloride plate, 5 kg/cm^2, 90° C. for 5 hr; for Bleeding properties (B), ABS: Acrylonitrile/butadiene/styrene; for Bleeding properties (B), PET: Polyethylene glycol terephthalate; for Bleeding properties (B), PC: Polycarbonate; for Bleeding properties (B), PS: Polystyrene
Procedure: For the compounds (B, C, D, F, G and H), a resin coloring suitability test was conducted.
B: Bleeding properties: A colored plate was superposed upon a vinyl
chloride plate, and a pressure of 5 kg/cm^2 was applied thereto and a
treatment was then carried out at 90° C. for 5 hr. Afterward, the
soil on the vinyl chloride plate was evaluated by a gray scale.
Heat resistance and bleed resistance: […]
judgement, and the fifth grade or more was denoted by .circleincircle. an
the third to fifth grades by .largecircle..

[2] = Dichroic ratio / liquid crystal display element in liquid crystal mixture E-8; settings: for color of display device during applying no voltage: liquid crystal E-8, no voltage; for electrode parts when the voltage was applied: liquid crystal E-8, voltage applied
Procedure: Each of the dyestuffs of Examples 12 and 13 was added to 9.8 parts of a liquid crystal mixture of a trade name E-8 made by Merck AG, and the mixture was then heated up to about 60° C. to completely dissolve the dyestuff. After cooling, the solution was poured into a liquid crystal display element, and it was then hermetically sealed.
Each sample was put on a light path of a spectrophotometer, and an absorbance A was measured by applying straight polarized light to the liquid crystal in parallel with the arrangement of the liquid crystal and an absorbance A' was measured by applying straight polarized light to the liquid crystal at a right angle to the arrangement of the liquid crystal. By the use of the thus measured absorbances A and A', a dichroic ratio was calculated in accordance with the following formula: […]
Furthermore, as comparative preparation examples, otherwise the same liquid crystals as mentioned above were prepared from compounds for comparison represented by the following formulae (K) and (L).

CC(C)c1nnc(-c2ccc3c(c2)C(=O)C(c2nc4ccccc4cc2O)C3=O)o1 (stereo not drawn) [C]
Bleeding properties (B), ABS [1]: .largecircle. (the third to fifth grades) | Bleeding properties (B), PET [1]: .largecircle. (the third to fifth grades)

Cc1ccc2oc(-c3ccc(-c4ccc(N5C(=O)c6cc7c(cc6C5=O)C(=O)C(c5nc6ccc(C(C)C)cc6cc5O)C7=O)cc4)cc3)nc2c1 [Example 13]
contrast ([2]; liquid crystal E-8): good contrast | color of display device during applying no voltage [2]: sharp and deep yellow | electrode parts when the voltage was applied [2]: colorless

CC1CN=C(c2ccc3c(c2)C(=O)C(c2nc4ccccc4cc2O)C3=O)O1 (stereo not drawn) [B]
Bleeding properties (B), ABS [1]: .largecircle. (the third to fifth grades) | Bleeding properties (B), PC [1]: .largecircle. (the third to fifth grades) | Bleeding properties (B), PET [1]: .largecircle. (the third to fifth grades) | Bleeding properties (B), PS [1]: .largecircle. (the third to fifth grades)

CC(C)c1ccc2nc(C3C(=O)c4ccccc4C3=O)c(O)cc2c1 [D]
Bleeding properties (B), ABS [1]: .largecircle. (the third to fifth grades) | Bleeding properties (B), PET [1]: .circleincircle. (the fifth grade or more)

CCC1(CO)COC(c2ccc3c(c2)C(=O)C(c2nc4ccc(C(C)C)cc4cc2O)C3=O)=N1 (stereo not drawn) [G]
Bleeding properties (B), ABS [1]: .circleincircle. (the fifth grade or more) | Bleeding properties (B), PC [1]: .circleincircle. (the fifth grade or more) | Bleeding properties (B), PET [1]: .circleincircle. (the fifth grade or more) | Bleeding properties (B), PS [1]: .circleincircle. (the fifth grade or more)

CCCCCCCCOc1ccc(-c2ccc(N3C(=O)c4cc5c(cc4C3=O)C(=O)C(c3nc4ccc(C(C)C)cc4cc3O)C5=O)cc2)cc1 [Example 12]
Dichroic Ratio ([2]; A/A', liquid crystal E-8): 8.5 | contrast ([2]; liquid crystal E-8): good contrast | color of display device during applying no voltage [2]: sharp and deep yellow | electrode parts when the voltage was applied [2]: colorless

CCCCN(CCCC)C(=O)c1ccc2c(c1)C(=O)C(c1nc3ccc(C(C)C)cc3cc1O)C2=O (stereo not drawn) [F]
Bleeding properties (B), ABS [1]: .circleincircle. (the fifth grade or more) | Bleeding properties (B), PC [1]: .circleincircle. (the fifth grade or more) | Bleeding properties (B), PET [1]: .circleincircle. (the fifth grade or more) | Bleeding properties (B), PS [1]: .circleincircle. (the fifth grade or more)

CCC1(COC(=O)C(C)C)COC(c2ccc3c(c2)C(=O)C(c2nc4ccc(C(C)C)cc4cc2O)C3=O)=N1 (stereo not drawn) [H]
Bleeding properties (B), ABS [1]: .circleincircle. (the fifth grade or more) | Bleeding properties (B), PC [1]: .circleincircle. (the fifth grade or more) | Bleeding properties (B), PET [1]: .circleincircle. (the fifth grade or more) | Bleeding properties (B), PS [1]: .circleincircle. (the fifth grade or more)
